The list is a part of this screen's results and no random one: it is rich in T/C values a quarter to a half above the control, in often repeated tests (any T/C) and in doses without a T/C. Other doses and runs of a compound stand elsewhere. T/C is the treated group as % of the vehicle group. Schedule codes are those of the source, taken here to give the interval after Q, in days (D) or hours (H), and the number of doses after X. Some T/C values carry the count of animals alive at the toxicity check (mostly the fifth day); where none is given, no animal had died by that day. Some doses were run more than once; their values stand side by side, smallest first. Brackets with × say how often a value occurs here. Some entries give survivors of the animals treated and no T/C: the source files T/C as zero there, which appears to mark a toxic dose or a test without result, not a measured value. Survivors were counted at the toxicity check, usually on the fifth day, unless a day is given; later deaths do not show.
Tested on: BDF1 mice, colon carcinoma 38 sc, T/C %
Test: NCI In Vivo Anticancer Drug Screen. Data for tumor model Colon Carcinoma 38 (subcutaneous) in B6D2F1 (BDF1) mice
Conditions: T/C endpoint: median tumor weight (est.), schedule: Q07DX002 (ip), higher T/C = larger tumour; for T/C: evaluated on day 20
Procedure: The antitumor activity of compounds was measured in mice bearing transplantable tumors. Survival or tumor size were measured and the results are expressed as the measurement made in the treated group (T) divided by the measurement made in the vehicle treated control group (C). The tumor model used in this assay is Colon Carcinoma 38 (subcutaneous) in B6D2F1 (BDF1) mice

[1] = dose: 400.0 mg/kg/injection, vehicle: saline
[2] = dose: 32.0 mg/kg/injection, vehicle: saline with Tween-80
[3] = dose: 64.0 mg/kg/injection, vehicle: saline with Tween-80
[4] = dose: 200.0 mg/kg/injection, vehicle: saline

In the case of `O=c1n[n+]([O-])ccn1C1OC(CO)C(O)C1O` (stereo not drawn), the T/C (dose: 50.0 mg/kg/injection, vehicle: saline) was 128 % of control, the T/C (dose: 300.0 mg/kg/injection, vehicle: saline) was 131 % of control [9 of 10 alive] and the T/C [1] was 140 % of control.

In the case of `Cc1cc(O)c2c(c1O)C(=O)C13C(=C2O)C(=O)C2C(O)C1C1C(O)C3C(=O)C3=C(O)c4c(O)cc(C)c(O)c4C(=O)C321` (stereo not drawn), the survivor count (dose: 12.5 mg/kg/injection, vehicle: saline with Tween-80) was 5 of 10 on day 20, the survivor count (dose: 25.0 mg/kg/injection, vehicle: saline with Tween-80) was 5 of 10 on day 20 and the survivor count (dose: 50.0 mg/kg/injection, vehicle: saline with Tween-80) was 1 of 10 on day 20. For the same compound, the survivor count (dose: 100.0 mg/kg/injection, vehicle: saline with Tween-80) was 0 of 10 on day 20.

`O=C(NO)c1cc(O)c(O)c(O)c1` was tested, and the survivor count (dose: 1600.0 mg/kg/injection, vehicle: water) was 0 of 10 on day 20.

With `CC1CCC(NC(=O)N(CCCl)N=O)CC1` (stereo not drawn) the T/C (dose: 4.0 mg/kg/injection, vehicle: saline with Tween-80) was 63, 82 [9 of 10 alive on day 20], 89 (2×), 89 [8 of 10 alive on day 20], 100, 112, 121, 123, 124, 135 % of control, the T/C (dose: 8.0 mg/kg/injection, vehicle: saline with Tween-80) was 52 [9 of 10 alive on day 20], 59, 72 [9 of 10 alive on day 20], 76, 81, 83 [9 of 10 alive on day 20], 104 [9 of 10 alive on day 20], 110 (2×), 111, 135 % of control [9 of 10 alive on day 20] and the T/C (dose: 16.0 mg/kg/injection, vehicle: saline with Tween-80) was 36, 46, 47, 63, 72 [9 of 10 alive on day 20], 76, 82, 94 [9 of 10 alive on day 20], 100, 109, 125 % of control. For the same compound, the T/C [2] was 5 [8 of 10 alive on day 20], 18 [9 of 10 alive on day 20], 19, 27 [8 of 10 alive on day 20], 39, 53 [9 of 10 alive on day 20], 56, 75 [8 of 10 alive on day 20], 82, 96 % of control [9 of 10 alive on day 20], the survivor count [2] was 5 of 10 on day 20 and the survivor count (dose: 64.0 mg/kg/injection, vehicle: Klucel (hydroxypropylcellulose) (HPC)) was 3 of 10 on day 20. The T/C [3] was 4, 12 [9 of 10 alive on day 20], 41 [9 of 10 alive on day 20], 51 % of control and the survivor count [3] was 0 of 10 on day 20, 3 of 10 on day 20, 4 of 10 on day 20, 5 of 10 on day 20.

`CCc1ncnc2cc(OCC3CO3)c(OC)cc12` (stereo not drawn) was tested, and the survivor count (dose: 100.0 mg/kg/injection, vehicle: saline) was 0 of 10 on day 20, the survivor count [4] was 0 of 10 on day 20 and the survivor count [1] was 0 of 10 on day 20.

With `O=C(O)C1CSCN1` (stereo not drawn) the T/C (dose: 12.5 mg/kg/injection, vehicle: water) was 145 % of control [9 of 10 alive on day 20], the T/C (dose: 100.0 mg/kg/injection, vehicle: water) was 130 % of control and the survivor count [4] was 3 of 10 on day 20. For the same compound, the survivor count (dose: 200.0 mg/kg/injection, vehicle: water) was 3 of 10 on day 20.

In the case of `Nc1nc(/C=C(/O)c2ccccc2)c2ncn(C3OC(CO)C(O)C3O)c2n1` (stereo not drawn), the T/C (dose: 50.0 mg/kg/injection, vehicle: distilled water + Tween-80) was 146 % of control, the survivor count (dose: 200.0 mg/kg/injection, vehicle: distilled water + Tween-80) was 5 of 10 on day 20 and the survivor count (dose: 400.0 mg/kg/injection, vehicle: distilled water + Tween-80) was 0 of 10 on day 20. For the same compound, the survivor count [1] was 3 of 10 on day 20.

In the case of `OC1(CSc2ccccc2)CCCCC1`, the survivor count (dose: 800.0 mg/kg/injection, vehicle: saline with Tween-80) was 0 of 10 on day 20.

Source: PubChem BioAssay AID212 (DTP/NCI, 2004)
